The target of assay [1] is FUS-G156E-GFP (FUSm) (human) (UniProt P35637). Kind of assay: cross-linking; XL-MS of FUSm (or FUSm_K9) mixed with the partner under condensate-inducing low salt (75 mM): low-salt mixture or dense phase separated by centrifugation; H12/D12 DSS, 30 min, 37°C; also 3 hr after formation and with an RNA oligonucleotide; both purified.
Assay [2] shares this target. The assay is described as follows: condition: only non-phase separating conditions (500 mM KCl); up to 120 µM HspB8; MST; 33 nM FUSm, partner titrated; non-phase separating conditions (500 mM KCl); both purified.
The target is the same in assay [3]. The assay is described as follows: cross-linking; XL-MS of FUSm (or FUSm_K9) mixed with HspB8 outside condensates: dilute phase after centrifugation or high salt (500 mM); H12/D12 DSS, 30 min, 37°C; both purified.

Protein sequences, listed by entry. Tags and fused reporters are not part of them. Lines headed by an entry give the natural chain unless they say otherwise; changes in a name come on top.
UniProt P35637: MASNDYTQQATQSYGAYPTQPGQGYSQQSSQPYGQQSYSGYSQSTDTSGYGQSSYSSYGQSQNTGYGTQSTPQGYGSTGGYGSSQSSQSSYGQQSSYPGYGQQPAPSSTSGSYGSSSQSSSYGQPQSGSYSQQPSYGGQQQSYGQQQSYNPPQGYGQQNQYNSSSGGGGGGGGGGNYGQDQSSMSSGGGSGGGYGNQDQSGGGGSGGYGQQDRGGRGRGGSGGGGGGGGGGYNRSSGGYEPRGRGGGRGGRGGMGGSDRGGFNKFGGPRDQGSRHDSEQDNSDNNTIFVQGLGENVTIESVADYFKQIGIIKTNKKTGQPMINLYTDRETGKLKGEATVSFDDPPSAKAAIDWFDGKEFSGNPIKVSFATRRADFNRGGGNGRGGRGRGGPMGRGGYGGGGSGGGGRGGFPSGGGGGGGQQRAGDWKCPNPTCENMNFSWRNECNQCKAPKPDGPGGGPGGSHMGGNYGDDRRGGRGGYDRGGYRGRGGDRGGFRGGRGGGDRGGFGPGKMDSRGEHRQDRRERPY

Results are given in words; binding and its absence hold for the method and conditions named.

The values below come from article PMC8510580, “HspB8 prevents aberrant phase transitions of FUS by chaperoning its folded RNA-binding domain” (eLife, 2021).

B1: lactalbumin (protein, UniProt P00711 20-142)
chain: EQLTKCEVFRELKDLKGYGGVSLPEWVCTTFHTSGYDTQAIVQNNDSTEYGLFQINNKIWCKDDQNPHSSNICNISCDKFLDDDLTDDIMCVKKILDKVGINYWLAHKALCSEKLDQWLCEKL
Turning to B1, the binding entry in assay [1] is given as “no binding”.

B2: HspB8-WT (natural protein, UniProt Q9UJY1 1-196, looked up)
chain: MADGQMPFSCHYPSRLRRDPFRDSPLSSRLLDDGFGMDPFPDDLTASWPDWALPRLSSAWPGTLRSGMVPRGPTATARFGVPAEGRTPPPFPGEPWKVCVNVHSFKPEELMVKTKDGYVEVSGKHEEKQQEGGIVSKNFTKKIQLPAEVDPVTVFASLSPEGLLIIEAPQVPPYSTFGESSFNNELPQDSQEVTCT
notes: small heat shock protein HspB8; IDR printed as AA1-71 and alpha-crystallin domain as AA72-196; The article's keywords name Human as organism; also called small heat shock protein HspB8; source: E. coli BL21 Codon RIL, purified (GST, PreScission cleavage, reverse GST, ResourceQ); not shown: GST, N-terminal, cleaved
For the molecule B2, the binding entry was “no binding” in assay [2] and “no binding (condition: outside condensates (dilute phase))” in assay [3].
